Reference: patent US20230250147A1, “GLP-1R AGONISTIC PEPTIDES WITH REDUCED ACTIVITY” (SANOFI, priority 2020, published 2023)
Not every detail of the peptide structures is certain; ends, links or a residue may be inferred. No end group written: not given here.

Chains of the proteins cited; added tags and fusions are not shown. Residues count along the entry.
UniProt F8V479, 24-463: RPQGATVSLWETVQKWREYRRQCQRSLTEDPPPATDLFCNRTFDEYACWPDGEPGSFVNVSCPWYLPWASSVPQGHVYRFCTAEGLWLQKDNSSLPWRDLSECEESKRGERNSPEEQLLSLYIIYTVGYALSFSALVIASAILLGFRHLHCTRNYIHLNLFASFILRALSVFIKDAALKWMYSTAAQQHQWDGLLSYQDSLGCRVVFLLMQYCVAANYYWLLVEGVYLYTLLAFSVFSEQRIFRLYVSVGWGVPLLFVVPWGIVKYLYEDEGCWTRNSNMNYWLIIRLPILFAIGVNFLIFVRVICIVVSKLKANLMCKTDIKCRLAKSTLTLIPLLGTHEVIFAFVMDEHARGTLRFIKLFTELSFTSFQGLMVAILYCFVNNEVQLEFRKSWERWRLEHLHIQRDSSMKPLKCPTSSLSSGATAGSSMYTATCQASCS
UniProt P43220, 24-463: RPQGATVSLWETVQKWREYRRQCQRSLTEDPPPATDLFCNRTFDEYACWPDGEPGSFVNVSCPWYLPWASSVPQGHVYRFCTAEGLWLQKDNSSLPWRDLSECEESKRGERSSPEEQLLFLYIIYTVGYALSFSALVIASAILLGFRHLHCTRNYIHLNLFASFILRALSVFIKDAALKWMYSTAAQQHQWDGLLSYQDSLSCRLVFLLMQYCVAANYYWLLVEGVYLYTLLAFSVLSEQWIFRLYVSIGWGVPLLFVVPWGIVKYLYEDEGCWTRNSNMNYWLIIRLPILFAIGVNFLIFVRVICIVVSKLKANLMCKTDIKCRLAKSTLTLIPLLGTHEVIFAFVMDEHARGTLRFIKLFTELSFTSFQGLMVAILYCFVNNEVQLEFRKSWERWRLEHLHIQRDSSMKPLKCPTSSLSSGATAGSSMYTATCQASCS

Assays:
Assay type in all cases: cell-based
[1] = target: T1, Monkey GLP-1R (Macaca fascicularis, UniProt F8V479); experiment: HTRF cAMP assay in HEK-293 cells, monkey GLP-1R
T1 construct: expressed in transfected cells; host or cells: HEK-293
Method: (§1) Recombinant HEK-293 cells were grown in T175 culture flasks placed at 37° C. to near confluence in medium (DMEM with 10% FBS) and collected in 2 mL vials in cell culture medium containing 10% DMSO in concentrations of 1-5×10^7 cells/mL. Each vial contained 1.8 mL cell suspension. The vials were slowly frozen to −80° C. in an isopropanol chamber, and then transferred to liquid nitrogen for long term storage.
(§2) Prior to their use, frozen cells were thawed quickly at 37° C., washed with 20 mL cell buffer (1×HBSS; 20 mM HEPES, 0.1% BSA) and centrifuged for 5 minutes at 900 rpm. Cells were resuspended in assay buffer (cell buffer plus 2 mM IBMX) and adjusted to a cell density of 1×10^6 cells/mL. For measurement, 5 μL cell suspension (final 5×10^3 cells/well) and 5 μL of test compound were added to a well of a 384-well plate, followed by incubation for 30 minutes at room temperature. […] The cAMP content of cells was determined using a kit from Cisbio Corp. (cat. no. 62AM4PEC) based on Homogenous Time Resolved Fluorescence (HTRF).

[2] = target: T2, Mouse GLP-1R (Mus musculus, UniProt O35659); experiment: HTRF cAMP assay in HEK-293 cells, mouse GLP-1R
T2 construct: expressed in transfected cells; host or cells: HEK-293
T2 sequence (O35659 22-463): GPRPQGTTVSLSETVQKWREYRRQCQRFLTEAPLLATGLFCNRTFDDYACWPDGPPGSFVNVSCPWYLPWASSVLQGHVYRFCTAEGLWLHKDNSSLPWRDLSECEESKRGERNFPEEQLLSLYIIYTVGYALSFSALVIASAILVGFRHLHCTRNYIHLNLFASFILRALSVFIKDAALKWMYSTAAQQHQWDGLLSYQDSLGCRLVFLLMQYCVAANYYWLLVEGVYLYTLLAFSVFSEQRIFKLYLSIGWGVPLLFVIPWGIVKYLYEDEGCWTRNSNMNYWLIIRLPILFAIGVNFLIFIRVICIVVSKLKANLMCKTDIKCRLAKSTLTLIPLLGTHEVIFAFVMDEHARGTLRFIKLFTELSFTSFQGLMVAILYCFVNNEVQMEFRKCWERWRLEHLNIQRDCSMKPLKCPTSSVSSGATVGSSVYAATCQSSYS
Method: as §1, §2

[3] = target: T3, Human GLP-1R (Homo sapiens, UniProt P43220); experiment: HTRF cAMP assay in HEK-293 cells, human GLP-1R
T3 construct: expressed in transfected cells; host or cells: HEK-293
Method: as §1, §2

**Q.** How did the EC50 [1] turn out when “HGEGTFTSDLSIQLEEEAVQEFIEWLLATGPSSGAPPPS-NH2 (C-terminus assumed) [compound 272]” was run?
**A.** Its EC50 is 21.7 pM.

**Q.** What about the EC50 [2] of the same substance?
**A.** The EC50 was 1.31 pM.

**Q.** What about the EC50 [3] of the same substance?
**A.** Its EC50 is 20.8 pM.

**Q.** For “HGEGTFTSDLSIQLEEERVQEFIEWLLAGGPSSGAPPPS-NH2 (C-terminus assumed) [compound 271]”, which EC50 [1] is on record?
**A.** Its EC50 is 9.51 pM.

**Q.** What about the EC50 [3] of the same substance?
**A.** The EC50 was 6.94 pM.
